Entries after “also recorded” stand apart in the source; their conditions may differ. At least one peptide structure holds a part that was inferred or is arguable (an end, a ring closure or a residue). Where a SMILES comes first, the peptide text is derived from it.
Assays:
[1] = tested on: StPep1-induced marker genes; test: qRT-PCR of 7 StPep1 marker genes in roots of NahG-expressing potato plants; type: in vivo, potato (Bannock Russet); settings: StPep1 vs water, 6 hours
[2] = tested on: potato root gene expression; test: RNA-seq transcriptome analysis of potato roots treated with StPep1; type: in vivo, Russet Burbank potato; settings: 100 nM StPep1, roots, 6 h vs 0 h; ≥2 fold log change, q<0.05
[3] = tested on: M. chitwoodi; test: Viability of M. chitwoodi J2 incubated in StPep1 solution; type: in vivo, Meloidogyne chitwoodi; settings: 1 μM StPep1 vs mock; 2, 4 and 7 days
[4] = tested on: StPep1-induced marker genes; test: qRT-PCR of 7 StPep1 marker genes in roots of StCOI1-RNAi potato plants; type: in vivo, potato (Desiree); settings: StPep1 vs mock, 6 hours
[5] = tested on: M. chitwoodi; type: in vivo, Meloidogyne chitwoodi on Russet Burbank potato
[6] = tested on: M. chitwoodi; test: Nematode invasion assay (J2 inside potato roots, acid fuchsin staining); type: in vivo, Meloidogyne chitwoodi on Russet Burbank potato; settings: 1 μM StPep1 or mock 2 days before inoculation; 4 days post inoculation
[7] = 1 μM StPep1 watered 2 days before inoculation, 12 DPI, vs control

CC(C)[C@H](NC(=O)[C@H](CCCCN)NC(=O)[C@@H]1CCCN1C(=O)[C@H](CCCNC(=N)N)NC(=O)[C@H](CO)NC(=O)[C@@H]1CCCN1C(=O)[C@@H]1CCCN1C(=O)[C@H](CCCNC(=N)N)NC(=O)CNC(=O)[C@H](CCCNC(=N)N)NC(=O)[C@H](CCCNC(=N)N)NC(=O)[C@H](CCC(=O)O)NC(=O)[C@@H](NC(=O)[C@H](C)N)[C@@H](C)O)C(=O)NCC(=O)N[C@@H](CO)C(=O)NCC(=O)N1CCC[C@H]1C(=O)N1CCC[C@H]1C(=O)N1CCC[C@H]1C(=O)N[C@@H](CCC(N)=O)C(=O)N[C@@H](CC(N)=O)C(=O)N[C@@H](CC(N)=O)C(=O)O [StPep1] (H-ATERRGRPPSRPKVGSGPPPQNN-OH)
marker genes (of 7) with significantly higher expression in NahG plants vs WT [1]: 3 | number of down-regulated genes [2]: 373 | number of up-regulated genes [2]: 392 | direct effect on nematode J2 viability [3]: did not directly kill the nematodes | marker genes (of 7 tested) with reduced induction in StCOI1-RNAi roots vs WT [4]: 2 | egg masses/gram root ([5]; 1 μM StPep1 pre-treatment, 35 DPI, phloxine B staining): significantly reduced | galls/gram root [5, 7]: significantly reduced | number of galls/plant [5, 7]: significantly reduced | M. chitwoodi invasion, number of J2/gram root [6]: does not significantly affect | M. chitwoodi invasion, number of J2/plant [6]: does not significantly affect; also recorded: no observed difference
